Some results come without the dose or concentration used.
Experiment: Dissociation index (side-effect endpoint / anti-inflammatory endpoint)
Format: in vivo, mouse
Conditions: for Corrected dissociation index OC/TNFα (ED50) / Corrected dissociation index OC/TNFα (ED80): based on prednisolone; for Dissociation index OC/TNFα (ED50): osteocalcin ED50 / TNFα ED50; for Dissociation index OC/TNFα (ED80): osteocalcin ED80 / TNFα ED80

SMILES | Corrected dissociation index OC/TNFα (ED80) | Corrected dissociation index OC/TNFα (ED50) | Dissociation index OC/TNFα (ED50) | Dissociation index OC/TNFα (ED80) | other results
Cc1ncccc1NC(=O)c1ccc2c(c1)CC[C@@H]1C[C@@](O)(C(F)(F)F)CC[C@@]21Cc1ccccc1 [Example 1, (4βS,7R,8αR)-4β-benzyl-7-hydroxy-N-(2-methylpyridin-3-yl)-7-(trifluoromethyl)-4β,5,6,7,8,8α,9,10-octahydrophenanthrene-2-carboxamide] |  |  |  |  | Corrected dissociation index OC/TNFα (ED50) (listed as Example 1 free base): 5.70; Corrected dissociation index OC/TNFα (ED80) (listed as Example 1 free base): >1.69; Corrected dissociation index BFR/disease severity (EAUC80) (data set 2): 15.5; Corrected Dissociation Index BFR/TNFα (EAUC50) (relative to prednisolone): 12.0; Corrected Dissociation Index BFR/disease incidence (EAUC50) (relative to prednisolone): 17.0; Corrected Dissociation Index BFR/disease incidence (EAUC80) (relative to prednisolone): 15.5; Corrected Dissociation Index BFR/disease severity (EAUC50) (relative to prednisolone): 15.0
Cc1ncccc1NC(=O)c1ccc2c(c1)C=C[C@@H]1C[C@@](O)(C(F)(F)F)CC[C@@]21Cc1ccccc1 [Comparator I, (4βS,7R,8αS)-4β-benzyl-7-hydroxy-N-(2-methylpyridin-3-yl)-7-(trifluoromethyl)-4β,5,6,7,8,8α-hexahydrophenanthrene-2-carboxamide] | >1.13 |  |  |  | 
Cc1ccncc1NC(=O)c1ccc2c(c1)CC[C@@H]1C[C@@](O)(C(F)(F)F)CC[C@@]21Cc1ccccc1 [Comparator D, (4βS,7R,8αR)-4β-benzyl-7-hydroxy-N-(4-methylpyridin-3-yl)-7-(trifluoromethyl)-4β,5,6,7,8,8α,9,10-octahydrophenanthrene-2-carboxamide] | <0.05 | 0.73 | 0.80 | <0.15 | 
Cc1ncccc1CNC(=O)c1ccc2c(c1)CC[C@@H]1C[C@@](O)(CCC(F)(F)F)CC[C@@]21Cc1ccccc1 [Comparator A, (4βS,7S,8αR)-4β-benzyl-7-hydroxy-N-((2-methylpyridin-3-yl)methyl)-7-(3,3,3-trifluoropropyl)-4β,5,6,7,8,8α,9,10-octahydrophenanthrene-2-carboxamide] |  | 0.56 | 0.62 |  | 
Cc1ncccc1NC(=O)c1ccc2c(c1)CC[C@@H]1C[C@@](O)(C(F)F)CC[C@@]21Cc1ccccc1 [Comparator H, (4βS,7R,8αR)-4β-benzyl-7-(difluoromethyl)-7-hydroxy-N-(2-methylpyridin-3-yl)-4β,5,6,7,8,8α,9,10-octahydrophenanthrene-2-carboxamide] | 0.63 | 2.00 | 2.22 | 2.03 | 
Cc1cnc(NC(=O)c2ccc3c(c2)CC[C@@H]2C[C@@](O)(C(F)(F)F)CC[C@@]32Cc2ccccc2)c(C)n1 [Comparator B, (4βS,7R,8αR)-4β-benzyl-N-(3,5-dimethylpyrazin-2-yl)-7-hydroxy-7-(trifluoromethyl)-4β,5,6,7,8,8α,9,10-octahydrophenanthrene-2-carboxamide] | >1.06 | 1.32 | 1.46 | >3.44 | 
Cc1ncc(NC(=O)c2ccc3c(c2)CC[C@@H]2C[C@@](O)(CCC(F)(F)F)CC[C@@]32Cc2ccccc2)c(C)n1 [Comparator J, (4βS,7S,8αR)-4β-benzyl-N-(2,4-dimethylpyrimidin-5-yl)-7-hydroxy-7-(3,3,3-trifluoropropyl)-4β,5,6,7,8,8α,9,10-octahydrophenanthrene-2-carboxamide] | 1.40 |  |  |  | 
Cc1ncccc1NC(=O)c1ccc2c(c1)[C@H](O)C[C@@H]1C[C@@](O)(C(F)(F)F)CC[C@@]21Cc1ccccc1 [Comparator F, (4βS,7R,8αR,10R)-4β-benzyl-7,10-dihydroxy-N-(2-methylpyridin-3-yl)-7-(trifluoromethyl)-4β,5,6,7,8,8α,9,10-octahydrophenanthrene-2-carboxamide] | >0.54 | 0.50 | 0.56 | >1.76 | 
Cc1ncccc1NC(=O)c1ccc2c(c1)CC[C@@H]1C[C@@](O)(CCC(F)(F)F)CC[C@@]21Cc1ccccc1 [Comparator C, (4βS,7S,8αR)-4β-benzyl-7-hydroxy-N-(2-methylpyridin-3-yl)-7-(3,3,3-trifluoropropyl)-4β,5,6,7,8,8α,9,10-octahydrophenanthrene-2-carboxamide] | 0.66 | 3.37 | 3.74 | 2.14 | 
Cc1ncccc1NC(=O)c1ccc2c(c1)C(=O)C[C@@H]1C[C@@](O)(C(F)(F)F)CC[C@@]21Cc1ccccc1 [Comparator E, (4βS,7R,8αS)-4β-benzyl-7-hydroxy-N-(2-methylpyridin-3-yl)-10-oxo-7-(trifluoromethyl)-4β,5,6,7,8,8α,9,10-octahydrophenanthrene-2-carboxamide] | 0.45 | 1.09 | 1.21 | 1.45 | 
